This assay has as its target L3MBTL2 (human) (UniProt Q969R5). As to the kind of experiment: reciprocal immunoprecipitation and Western blot in 293T cells, DNA digested. (In general: In western blotting, separated proteins are transferred to a membrane and probed.)

The chains behind the UniProt entries cited, without tags or fusion partners.
UniProt Q969R5: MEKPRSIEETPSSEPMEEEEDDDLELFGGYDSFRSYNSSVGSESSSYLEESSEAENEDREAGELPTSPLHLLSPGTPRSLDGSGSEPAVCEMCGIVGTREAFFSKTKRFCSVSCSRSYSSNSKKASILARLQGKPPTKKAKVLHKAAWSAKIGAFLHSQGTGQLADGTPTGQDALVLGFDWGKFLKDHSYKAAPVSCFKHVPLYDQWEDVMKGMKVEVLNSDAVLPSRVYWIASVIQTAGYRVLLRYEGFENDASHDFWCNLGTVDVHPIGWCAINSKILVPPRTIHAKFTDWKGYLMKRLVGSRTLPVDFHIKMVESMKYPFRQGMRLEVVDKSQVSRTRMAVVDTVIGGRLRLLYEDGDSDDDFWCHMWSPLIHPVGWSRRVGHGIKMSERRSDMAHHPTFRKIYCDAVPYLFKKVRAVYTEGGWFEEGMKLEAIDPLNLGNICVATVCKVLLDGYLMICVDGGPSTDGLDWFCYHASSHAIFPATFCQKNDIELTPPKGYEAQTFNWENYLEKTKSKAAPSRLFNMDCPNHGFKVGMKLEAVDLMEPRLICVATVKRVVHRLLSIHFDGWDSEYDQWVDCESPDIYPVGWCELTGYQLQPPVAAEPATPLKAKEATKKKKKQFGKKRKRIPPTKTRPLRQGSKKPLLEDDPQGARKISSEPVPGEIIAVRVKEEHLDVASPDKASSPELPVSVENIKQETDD
UniProt Q92560: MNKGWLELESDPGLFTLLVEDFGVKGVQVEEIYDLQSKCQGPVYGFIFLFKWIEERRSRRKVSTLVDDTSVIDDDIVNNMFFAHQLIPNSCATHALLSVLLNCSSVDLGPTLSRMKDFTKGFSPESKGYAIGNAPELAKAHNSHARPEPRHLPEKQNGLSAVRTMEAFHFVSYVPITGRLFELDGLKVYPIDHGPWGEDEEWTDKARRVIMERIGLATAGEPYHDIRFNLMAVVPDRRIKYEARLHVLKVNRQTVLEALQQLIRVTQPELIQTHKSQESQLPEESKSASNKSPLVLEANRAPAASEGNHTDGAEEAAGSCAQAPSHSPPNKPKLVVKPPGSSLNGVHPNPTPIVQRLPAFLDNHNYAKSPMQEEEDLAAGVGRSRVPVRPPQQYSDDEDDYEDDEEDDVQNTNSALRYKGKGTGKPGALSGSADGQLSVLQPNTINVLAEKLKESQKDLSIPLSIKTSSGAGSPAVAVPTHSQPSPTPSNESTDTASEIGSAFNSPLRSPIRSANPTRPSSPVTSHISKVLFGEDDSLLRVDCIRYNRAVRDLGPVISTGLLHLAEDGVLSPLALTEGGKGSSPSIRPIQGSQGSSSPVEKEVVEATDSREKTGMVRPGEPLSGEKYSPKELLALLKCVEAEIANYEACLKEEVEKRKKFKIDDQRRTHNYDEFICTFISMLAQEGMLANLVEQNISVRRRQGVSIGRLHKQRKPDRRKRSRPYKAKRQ

No constants are given. Whether binding was seen depends on the method and setting. Some results given as binding are weak or reduced against the parent protein; the word gives no strength.

As to “BRCA1 associated protein-1 (BAP1) (from UniProt Q92560 1-729) (enzyme)”, the binding entry is reported as “binds”.

For the origin of these results see patent US20170138946A1, “BIOMARKERS FOR RESPONSE TO EZH2 INHIBITORS” (Memorial Sloan-Kettering Cancer Center, priority 2014, published 2017).
